From PMC6925160 come the findings set out here.

By UniProt entry, the sequences of proteins in these tests, tags left out.
UniProt P39447: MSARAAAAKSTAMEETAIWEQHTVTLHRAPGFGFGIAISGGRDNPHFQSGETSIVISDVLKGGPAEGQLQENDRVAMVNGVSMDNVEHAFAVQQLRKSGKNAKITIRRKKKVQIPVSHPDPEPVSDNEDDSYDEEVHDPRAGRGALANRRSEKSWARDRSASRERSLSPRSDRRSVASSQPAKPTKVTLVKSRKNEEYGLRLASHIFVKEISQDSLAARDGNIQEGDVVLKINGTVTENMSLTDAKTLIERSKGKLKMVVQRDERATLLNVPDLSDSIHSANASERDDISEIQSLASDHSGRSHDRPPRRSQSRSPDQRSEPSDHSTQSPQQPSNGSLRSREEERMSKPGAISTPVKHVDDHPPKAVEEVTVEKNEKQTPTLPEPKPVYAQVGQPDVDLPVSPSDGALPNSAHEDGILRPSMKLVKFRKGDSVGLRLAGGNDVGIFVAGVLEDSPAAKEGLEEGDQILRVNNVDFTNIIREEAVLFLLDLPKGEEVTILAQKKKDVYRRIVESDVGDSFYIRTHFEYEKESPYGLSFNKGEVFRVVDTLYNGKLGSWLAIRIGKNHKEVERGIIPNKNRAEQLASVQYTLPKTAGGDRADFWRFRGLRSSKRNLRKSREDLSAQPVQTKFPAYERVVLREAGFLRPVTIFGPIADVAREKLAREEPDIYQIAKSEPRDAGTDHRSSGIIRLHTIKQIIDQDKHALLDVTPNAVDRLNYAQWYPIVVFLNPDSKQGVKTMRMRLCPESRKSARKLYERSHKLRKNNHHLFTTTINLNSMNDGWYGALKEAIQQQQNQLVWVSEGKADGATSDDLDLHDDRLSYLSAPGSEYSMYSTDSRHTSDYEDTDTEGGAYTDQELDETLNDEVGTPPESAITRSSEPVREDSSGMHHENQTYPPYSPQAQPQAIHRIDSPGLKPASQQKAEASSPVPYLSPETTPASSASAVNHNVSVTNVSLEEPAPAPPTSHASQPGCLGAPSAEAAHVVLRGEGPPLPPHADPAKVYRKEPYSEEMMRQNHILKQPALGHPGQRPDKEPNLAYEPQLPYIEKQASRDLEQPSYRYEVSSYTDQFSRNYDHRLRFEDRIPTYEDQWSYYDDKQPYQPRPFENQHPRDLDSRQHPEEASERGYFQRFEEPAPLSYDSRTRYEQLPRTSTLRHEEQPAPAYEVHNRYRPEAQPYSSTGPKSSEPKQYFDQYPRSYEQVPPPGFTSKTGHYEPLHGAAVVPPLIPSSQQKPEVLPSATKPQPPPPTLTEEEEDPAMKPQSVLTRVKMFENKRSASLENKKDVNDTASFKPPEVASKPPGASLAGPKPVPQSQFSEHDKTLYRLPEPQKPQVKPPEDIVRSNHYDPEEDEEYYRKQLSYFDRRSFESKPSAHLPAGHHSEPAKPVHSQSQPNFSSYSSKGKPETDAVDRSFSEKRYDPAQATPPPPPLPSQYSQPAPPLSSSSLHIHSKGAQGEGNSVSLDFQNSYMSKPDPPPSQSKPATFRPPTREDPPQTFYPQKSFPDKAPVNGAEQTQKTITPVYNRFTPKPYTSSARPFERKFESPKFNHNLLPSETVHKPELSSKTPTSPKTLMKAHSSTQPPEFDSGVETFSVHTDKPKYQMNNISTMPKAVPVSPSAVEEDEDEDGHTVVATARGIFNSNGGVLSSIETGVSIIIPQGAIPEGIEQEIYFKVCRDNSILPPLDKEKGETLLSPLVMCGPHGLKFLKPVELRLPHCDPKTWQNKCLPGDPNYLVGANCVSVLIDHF
UniProt Q9QZQ1: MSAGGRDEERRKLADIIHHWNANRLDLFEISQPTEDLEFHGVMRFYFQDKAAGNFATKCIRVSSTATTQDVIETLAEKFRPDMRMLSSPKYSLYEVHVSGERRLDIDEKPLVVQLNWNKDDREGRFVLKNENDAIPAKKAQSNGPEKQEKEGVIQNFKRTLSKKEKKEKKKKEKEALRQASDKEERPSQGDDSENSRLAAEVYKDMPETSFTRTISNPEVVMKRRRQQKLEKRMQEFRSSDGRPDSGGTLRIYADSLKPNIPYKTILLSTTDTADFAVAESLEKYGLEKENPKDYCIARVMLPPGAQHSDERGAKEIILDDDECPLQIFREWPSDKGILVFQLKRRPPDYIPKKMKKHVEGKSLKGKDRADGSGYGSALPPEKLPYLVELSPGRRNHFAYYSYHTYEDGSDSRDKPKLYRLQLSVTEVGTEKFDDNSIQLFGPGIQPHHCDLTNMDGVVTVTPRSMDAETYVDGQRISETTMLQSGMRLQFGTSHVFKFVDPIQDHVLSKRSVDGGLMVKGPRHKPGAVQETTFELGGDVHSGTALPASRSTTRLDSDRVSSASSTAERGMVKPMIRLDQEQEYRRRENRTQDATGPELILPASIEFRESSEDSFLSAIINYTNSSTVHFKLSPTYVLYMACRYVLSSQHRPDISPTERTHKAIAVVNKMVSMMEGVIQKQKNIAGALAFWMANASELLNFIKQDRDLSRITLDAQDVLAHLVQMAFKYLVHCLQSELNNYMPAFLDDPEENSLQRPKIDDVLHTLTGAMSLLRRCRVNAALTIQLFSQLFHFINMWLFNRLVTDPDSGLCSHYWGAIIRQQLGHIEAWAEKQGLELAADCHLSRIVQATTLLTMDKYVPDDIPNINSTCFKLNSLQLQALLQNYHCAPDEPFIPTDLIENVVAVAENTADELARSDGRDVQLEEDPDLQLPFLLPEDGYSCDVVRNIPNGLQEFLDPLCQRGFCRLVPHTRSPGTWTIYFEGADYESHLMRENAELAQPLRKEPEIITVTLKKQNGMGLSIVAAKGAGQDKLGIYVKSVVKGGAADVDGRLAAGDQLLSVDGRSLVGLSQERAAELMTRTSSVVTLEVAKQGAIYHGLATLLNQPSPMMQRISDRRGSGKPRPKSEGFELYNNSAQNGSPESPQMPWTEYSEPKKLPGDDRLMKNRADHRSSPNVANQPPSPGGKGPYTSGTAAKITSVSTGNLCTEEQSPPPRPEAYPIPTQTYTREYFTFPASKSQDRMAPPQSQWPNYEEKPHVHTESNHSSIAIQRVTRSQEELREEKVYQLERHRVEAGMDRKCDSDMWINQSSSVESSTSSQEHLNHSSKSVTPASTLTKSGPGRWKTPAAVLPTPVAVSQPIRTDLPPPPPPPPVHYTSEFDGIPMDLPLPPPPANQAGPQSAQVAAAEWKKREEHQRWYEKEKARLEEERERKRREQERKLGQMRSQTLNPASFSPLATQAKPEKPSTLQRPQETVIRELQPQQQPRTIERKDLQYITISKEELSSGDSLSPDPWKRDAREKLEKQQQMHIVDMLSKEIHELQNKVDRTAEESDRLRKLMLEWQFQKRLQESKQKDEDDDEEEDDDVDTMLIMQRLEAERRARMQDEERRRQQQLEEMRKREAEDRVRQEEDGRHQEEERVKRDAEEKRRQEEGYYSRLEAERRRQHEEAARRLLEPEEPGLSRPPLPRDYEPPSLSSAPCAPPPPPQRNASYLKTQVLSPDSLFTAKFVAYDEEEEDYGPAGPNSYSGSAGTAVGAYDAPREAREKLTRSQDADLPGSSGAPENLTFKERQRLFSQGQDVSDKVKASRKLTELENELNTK

Test [1] concerns the target zonula occludens‐1 (ZO‐1) (mouse (endogenous in L cells)) (UniProt P39447). Briefly: co-IP; L cells infected with wild-type EPEC (MOI 5) for 1, 2, 3 and 4 hr; RIPA lysate (750 µg protein) precipitated with 1 µg rabbit anti-ZO-1 polyclonal antibody and protein A-agarose, 4°C; washes with RIPA, high-salt (500 mM NaCl) and low-salt buffer; blots for ZO-1, afadin and EspF.
Test [2] shares this target. The test is described as follows: co-IP; as a1, the 4 hr time point of wild-type EPEC infection alone (the complex is barely left).
Test [3] has the same target. Briefly: co-IP; L cells infected with EPECΔespF (MOI 5) for 4 hr; RIPA lysate precipitated with rabbit anti-ZO-1 antibody and protein A-agarose; blot for afadin.

These are yes or no findings as the source states them, for the method shown. Binding seen in cells or lysates may run through a third protein. Some binding calls cover weakened binding; strength is not graded here.

Turning to “EspF from enteropathogenic Escherichia coli (EPEC) E2348/69 (from UniProt B7UM88 1-206)”, the binding entry in test [1] is “no binding”.
On to afadin (from UniProt Q9QZQ1 1-1820), for which the binding result in test [2] is on record as “binds weakly”; in test [3], “binds weakly”; in test [1], “binds”.
